# According to the supplement of paper PMC6411743:
# Chains of the proteins cited; added tags and fusions are not shown. Lines headed by an entry give the natural chain unless they say otherwise; changes in a name come on top.
# UniProt Q9Y277: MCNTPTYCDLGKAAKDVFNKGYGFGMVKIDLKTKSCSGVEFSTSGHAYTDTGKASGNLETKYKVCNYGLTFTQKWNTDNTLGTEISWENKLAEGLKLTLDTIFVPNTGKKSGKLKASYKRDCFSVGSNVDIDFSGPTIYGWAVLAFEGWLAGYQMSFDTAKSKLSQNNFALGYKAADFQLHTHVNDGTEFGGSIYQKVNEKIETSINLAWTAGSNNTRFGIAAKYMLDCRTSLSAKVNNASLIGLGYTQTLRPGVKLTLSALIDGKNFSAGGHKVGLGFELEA
# UniProt Q9UJS0: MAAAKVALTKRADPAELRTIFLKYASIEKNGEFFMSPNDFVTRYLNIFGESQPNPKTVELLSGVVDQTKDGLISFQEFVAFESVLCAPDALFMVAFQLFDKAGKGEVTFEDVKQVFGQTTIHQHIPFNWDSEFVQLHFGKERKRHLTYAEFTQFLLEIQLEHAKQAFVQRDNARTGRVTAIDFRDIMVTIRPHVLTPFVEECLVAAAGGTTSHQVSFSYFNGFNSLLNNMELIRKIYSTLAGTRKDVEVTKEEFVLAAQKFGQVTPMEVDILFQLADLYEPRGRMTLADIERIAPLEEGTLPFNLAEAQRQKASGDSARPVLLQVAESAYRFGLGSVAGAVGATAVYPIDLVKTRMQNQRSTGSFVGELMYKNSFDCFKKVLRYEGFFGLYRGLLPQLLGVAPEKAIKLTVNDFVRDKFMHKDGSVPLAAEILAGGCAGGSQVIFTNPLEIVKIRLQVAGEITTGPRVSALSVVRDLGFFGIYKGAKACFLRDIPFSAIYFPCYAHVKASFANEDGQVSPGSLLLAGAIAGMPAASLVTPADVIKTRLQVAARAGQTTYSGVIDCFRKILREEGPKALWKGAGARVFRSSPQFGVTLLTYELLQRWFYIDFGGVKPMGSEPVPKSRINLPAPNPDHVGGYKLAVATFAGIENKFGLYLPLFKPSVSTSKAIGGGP
# UniProt Q9Y237, whole entry: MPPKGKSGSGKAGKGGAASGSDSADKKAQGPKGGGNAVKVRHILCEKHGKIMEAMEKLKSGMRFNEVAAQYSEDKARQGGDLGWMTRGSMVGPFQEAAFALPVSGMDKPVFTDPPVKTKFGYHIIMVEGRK
# ± gives the standard deviation of the averaged measurements. The list shows a part of the results, in another mix than the full data. Most values lie at the level of the controls, where differences are scatter.
# Compound: Nc1ncnc2c1ncn2[C@@H]1O[C@H](COP(=O)(O)OP(=O)(O)NP(=O)(O)O)[C@@H](O)[C@H]1O [adenylyl imidodiphosphate]
# Assay: NP40-soluble protein abundance relative to vehicle (solubility fold change) (ratio); higher = more soluble protein in presence of AMP-PNP
# Outline: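 Each value is a fold change relative to the detergent-processed vehicle, calculated per replicate from vsn-normalised intensities. Jurkat crude lysate received eight concentrations (0.1 to 10 mM) for 10 min at room temperature and 3 min at 37 °C, then was solubilised in 0.8% NP40 with benzonase (60 min, 4 °C). The ultracentrifuged supernatant was TMT-labelled and run by LC-MS/MS in three independent experiments.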
Target,NP40-soluble protein abundance (concentration: 0.1mM),NP40-soluble protein abundance (concentration: 0.5mM)
UniProt Q9UK53-2|A0A0C4DFW2|Q9UK53 and related entries,1.03 ± 0.065,1.01 ± 0.038
VDAC3 (UniProt Q9Y277),1 ± 0.037,1.02 ± 0.069
UniProt Q9UJS0 and related entries,1.01 ± 0.029,1.03 ± 0.056
UniProt Q9Y237 and related entries,0.979 ± 0.064,1.03 ± 0.14
